For the data set, the system named is male Long-Evans rats. The experiment in a line: Focal cerebral ischemia (right distal MCA cauterization with temporary bilateral CCA occlusion). It is filed as in vivo. The conditions noted are these: for PaCO2 / arterial pH: arterial blood 30 min after MCA occlusion; for MABP Ischemia: average during occlusion; for MABP Steady State: just prior to occlusion; for relative blood flow in the right parietal cortex during occlusion, % of the baseline: laser Doppler, control 20.8±7.7%.

In the case of `O=C1NCCc2c(OCCCCN3CCCCC3)cccc21` [DPQ, 3,4-dihydro-5-[4-(1-piperidinyl)-butoxy]-1(2H)-isoquinolinone], the PaCO2 came to 38.0 ± 2.8 mm Hg (5 mg/kg), 39.3 ± 5.2 mm Hg (10 mg/kg), 41.3 ± 2.8 mm Hg (20 mg/kg) and 39.5 ± 4.7 mm Hg (40 mg/kg). The “arterial pH” value (5 mg/kg) worked out at 7.36, the “arterial pH” value (10 mg/kg) was 7.34, the “arterial pH” value (20 mg/kg) came out at 7.35 and the “arterial pH” value (40 mg/kg) was found to be 7.33. In addition, the “MABP Ischemia” value is, setting by setting: (5 mg/kg) 91 ± 12 mm Hg; (10 mg/kg) 90 ± 14 mm Hg; (20 mg/kg) 91 ± 12 mm Hg; (40 mg/kg) 88 ± 12 mm Hg. Also, the “MABP Steady State” value runs as follows: (5 mg/kg) 78 ± 5 mm Hg; (10 mg/kg) 80 ± 9 mm Hg; (20 mg/kg) 79 ± 10 mm Hg; (40 mg/kg) 78 ± 4 mm Hg. Moreover, the “relative blood flow in the right parietal cortex during occlusion, % of the baseline” value amounted to 13.7±7.4% (5 mg/kg), 19.3±11.2% (40 mg/kg) and 21.4±7.7% (dose group not printed (n=7)).
